These are yes or no findings as the source states them, for the method shown. In cells and extracts the contact can be indirect. Some binding calls cover weakened binding; strength is not graded here. For some assays here: Sequences can lack the tags named with a protein.
T1: Flag-SH2B3, Q9UQQ2
T1 chain: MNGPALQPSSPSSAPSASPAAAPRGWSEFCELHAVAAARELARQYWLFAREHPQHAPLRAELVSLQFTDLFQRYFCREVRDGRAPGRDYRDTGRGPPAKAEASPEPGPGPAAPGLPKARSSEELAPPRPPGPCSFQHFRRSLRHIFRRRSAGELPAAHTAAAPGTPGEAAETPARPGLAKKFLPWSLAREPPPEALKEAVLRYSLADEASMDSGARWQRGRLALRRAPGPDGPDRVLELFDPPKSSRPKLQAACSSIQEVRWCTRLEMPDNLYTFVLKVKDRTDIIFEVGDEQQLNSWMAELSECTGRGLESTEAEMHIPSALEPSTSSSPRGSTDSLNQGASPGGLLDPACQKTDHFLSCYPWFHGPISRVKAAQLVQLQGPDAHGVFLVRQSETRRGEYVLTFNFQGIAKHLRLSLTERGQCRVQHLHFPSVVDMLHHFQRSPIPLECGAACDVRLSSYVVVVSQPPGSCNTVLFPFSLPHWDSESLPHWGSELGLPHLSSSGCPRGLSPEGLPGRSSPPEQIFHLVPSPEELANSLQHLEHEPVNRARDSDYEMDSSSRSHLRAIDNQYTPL

T2: SH2B3 (endogenous) (human (endogenous in lung cancer cells)), Q9UQQ2
T2 chain: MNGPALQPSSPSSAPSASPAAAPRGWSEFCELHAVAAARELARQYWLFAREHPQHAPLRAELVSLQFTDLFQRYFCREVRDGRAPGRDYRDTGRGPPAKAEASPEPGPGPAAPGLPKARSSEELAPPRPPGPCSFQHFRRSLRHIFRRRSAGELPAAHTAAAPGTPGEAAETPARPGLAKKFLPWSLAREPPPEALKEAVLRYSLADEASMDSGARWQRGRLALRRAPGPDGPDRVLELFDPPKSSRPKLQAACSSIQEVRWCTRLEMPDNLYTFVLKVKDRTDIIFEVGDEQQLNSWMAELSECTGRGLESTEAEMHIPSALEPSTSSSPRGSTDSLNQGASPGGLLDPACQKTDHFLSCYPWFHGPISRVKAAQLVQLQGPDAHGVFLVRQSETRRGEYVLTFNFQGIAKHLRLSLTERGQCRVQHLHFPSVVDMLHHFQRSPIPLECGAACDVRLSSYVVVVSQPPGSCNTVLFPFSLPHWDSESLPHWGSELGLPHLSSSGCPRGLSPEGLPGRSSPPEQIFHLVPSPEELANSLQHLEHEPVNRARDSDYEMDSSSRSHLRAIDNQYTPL


How the values were obtained:
Flag-SH2B3, Q9UQQ2 = target: T1, Flag-SH2B3, Q9UQQ2; assay: co-IP; lysate of lung cancer cells co-transfected with Flag-SH2B3 and Myc-JAK2 or Myc-SHP2; anti-Flag antibody 1 h at 4 °C, Protein-A Sepharose beads overnight at 4 °C; western blot; details: remark: other sources report otherwise
[1] = target: T2, SH2B3 (endogenous) (human (endogenous …)); assay: co-IP; lysate of naive lung cancer cells; anti-SH2B3 antibody 1 h at 4 °C, Protein-A Sepharose beads overnight at 4 °C; western blot of the endogenous partner; details: remark: other sources report otherwise

| Binder | binding (Flag-SH2B3, Q9UQQ2) | binding [1] |
| --- | --- | --- |
| Myc-JAK2, O60674 1-1132 (protein) MGMACLTMTEMEGTSTSSIYQNGDISGNANSMKQIDPVLQVYLYHSLGKSEADYLTFPSGEYVAEEICIAASKACGITPVYHNMFALMSETERIWYPPNHVFHIDESTRHNVLYRIRFYFPRWYCSGSNRAYRHGISRGAEAPLLDDFVMSYLFAQWRHDFVHGWIKVPVTHETQEECLGMAVLDMMRIAKENDQTPLAIYNSISYKTFLPKCIRAKIQDYHILTRKRIRYRFRRFIQQFSQCKATARNLKLKYLINLETLQSAFYTEKFEVKEPGSGPSGEEIFATIIITGNGGIQWSRGKHKESETLTEQDLQLYCDFPNIIDVSIKQANQEGSNESRVVTIHKQDGKNLEIELSSLREALSFVSLIDGYYRLTADAHHYLCKEVAPPAVLENIQSNCHGPISMDFAISKLKKAGNQTGLYVLRCSPKDFNKYFLTFAVERENVIEYKHCLITKNENEEYNLSGTKKNFSSLKDLLNCYQMETVRSDNIIFQFTKCCPPKPKDKSNLLVFRTNGVSDVPTSPTLQRPTHMNQMVFHKIRNEDLIFNESLGQGTFTKIFKGVRREVGDYGQLHETEVLLKVLDKAHRNYSESFFEAASMMSKLSHKHLVLNYGVCVCGDENILVQEFVKFGSLDTYLKKNKNCINILWKLEVAKQLAWAMHFLEENTLIHGNVCAKNILLIREEDRKTGNPPFIKLSDPGISITVLPKDILQERIPWVPPECIENPKNLNLATDKWSFGTTLWEICSGGDKPLSALDSQRKLQFYEDRHQLPAPKWAELANLINNCMDYEPDFRPSFRAIIRDLNSLFTPDYELLTENDMLPNMRIGALGFSGAFEDRDPTQFEERHLKFLQQLGKGNFGSVEMCRYDPLQDNTGEVVAVKKLQHSTEEHLRDFEREIEILKSLQHDNIVKYKGVCYSAGRRNLKLIMEYLPYGSLRDYLQKHKERIDHIKLLQYTSQICKGMEYLGTKRYIHRDLATRNILVENENRVKIGDFGLTKVLPQDKEYYKVKEPGESPIFWYAPESLTESKFSVASDVWSFGVVLYELFTYIEKSKSPPAEFMRMIGNDKQGQMIVFHLIELLKNNGRLPRPDGCPDEIYMIMTECWNNNVNQRPSFRDLALRVDQIRDNMAG | binds | – |
| JAK2 (endogenous), O60674 1-1132 (protein) MGMACLTMTEMEGTSTSSIYQNGDISGNANSMKQIDPVLQVYLYHSLGKSEADYLTFPSGEYVAEEICIAASKACGITPVYHNMFALMSETERIWYPPNHVFHIDESTRHNVLYRIRFYFPRWYCSGSNRAYRHGISRGAEAPLLDDFVMSYLFAQWRHDFVHGWIKVPVTHETQEECLGMAVLDMMRIAKENDQTPLAIYNSISYKTFLPKCIRAKIQDYHILTRKRIRYRFRRFIQQFSQCKATARNLKLKYLINLETLQSAFYTEKFEVKEPGSGPSGEEIFATIIITGNGGIQWSRGKHKESETLTEQDLQLYCDFPNIIDVSIKQANQEGSNESRVVTIHKQDGKNLEIELSSLREALSFVSLIDGYYRLTADAHHYLCKEVAPPAVLENIQSNCHGPISMDFAISKLKKAGNQTGLYVLRCSPKDFNKYFLTFAVERENVIEYKHCLITKNENEEYNLSGTKKNFSSLKDLLNCYQMETVRSDNIIFQFTKCCPPKPKDKSNLLVFRTNGVSDVPTSPTLQRPTHMNQMVFHKIRNEDLIFNESLGQGTFTKIFKGVRREVGDYGQLHETEVLLKVLDKAHRNYSESFFEAASMMSKLSHKHLVLNYGVCVCGDENILVQEFVKFGSLDTYLKKNKNCINILWKLEVAKQLAWAMHFLEENTLIHGNVCAKNILLIREEDRKTGNPPFIKLSDPGISITVLPKDILQERIPWVPPECIENPKNLNLATDKWSFGTTLWEICSGGDKPLSALDSQRKLQFYEDRHQLPAPKWAELANLINNCMDYEPDFRPSFRAIIRDLNSLFTPDYELLTENDMLPNMRIGALGFSGAFEDRDPTQFEERHLKFLQQLGKGNFGSVEMCRYDPLQDNTGEVVAVKKLQHSTEEHLRDFEREIEILKSLQHDNIVKYKGVCYSAGRRNLKLIMEYLPYGSLRDYLQKHKERIDHIKLLQYTSQICKGMEYLGTKRYIHRDLATRNILVENENRVKIGDFGLTKVLPQDKEYYKVKEPGESPIFWYAPESLTESKFSVASDVWSFGVVLYELFTYIEKSKSPPAEFMRMIGNDKQGQMIVFHLIELLKNNGRLPRPDGCPDEIYMIMTECWNNNVNQRPSFRDLALRVDQIRDNMAG | – | binds |

Source: publication PMC9120066
